Experiment: general procedure: solution-phase peptide synthesis; pentafluorophenyl active ester, triethylamine

(2S)—N—((S)-1-((S)-4-methyl-1-((R)-2-methyloxiran-2-yl)-1-oxopentan-2-ylcarbamoyl)-2-phenylethyl)-2-((S)-2-(2-morpholinoacetamido)-4-phenyl butanamido)-4-methylpentanamide
99.9%: final HPLC purity (coupling step) | final HPLC purity (purification step) | purity (crude or final not stated) (purification step, HPLC)

Source: patent US20180298056 (published 2018)
